Binding data for one molecule are collected here from publication PMC8488606.

Results are given in words; binding and its absence hold for the method and conditions named. Binding seen in cells or lysates may run through a third protein. A yes stands for co-enrichment or nearness to the bait. Other partners may have been found.

The assay addresses GFP-tagged AfRom2 CNH domain expressed in A. fumigatus (gpd-gfp-rom2 (2725-3792)) (Aspergillus fumigatus) (UniProt Q4WUI2). In words: affinity purification with mass spectrometry; GFP-Trap resin with lysate of the A. fumigatus strain expressing gpd-gfp-cnh, gpd-gfp strain as control; washes with 350 mM NaCl; eluted proteins analysed by LC-MS.

B1: actin-related protein 4 (endogenous, A. fumigatus) (protein, UniProt Q4WHA3 1-466)
chain: MLIAICVQDEISAIVLDPGFSTTRAGFAGEDTPKSVIPTYYGKYTYEAQEKLIFGDDIFVTPRPGLSIHNPMGRDGVVEDWDMAEKVWEYSFTSRLTGPKAGNPFQNGLNDVANGELPSEMEGVETEEKPLADSPLLMTECGWNPTKAREKTVEIAMEKWGTPAFYLARNGVLAAFAAGKASALVVDVGASNISVTPVHDGMILKRGVQHSPLGGDYISSQLRALFKTNSPQPITITPHYLVASKTAVDAGQPAQAKYKTFPPDKAPDASYRTLMEERTLSEFKECVVQVWPGPNKLSATGPNGVSNEEVAKSSPGRPFEFPDGYNQVFGIDRYRVVESLFDAKAAIPDPESVFPAPTQAQTVPELIKAALNGVDVDVRPHLLANVVVTGASSLLYGFTDRLNQELMQSYPGPRVRISASGNTAERKFGSWVGGSILASLGTFHQMWISKKEYDEHGPNIVEKRCK
Turning to B1, the binding entry is given as “binds”.
